{"source": "paper PMC6555819", "test_system": "PPARγ (isoform 1) + RXRα", "assay": "EMSA", "details": "direct titration, 1 nM probe, no ligand, Kd not in the material; EMSA: 1x PBS, 0.2% BSA, 5 mM DTT, 10% glycerol, 0.02% Triton X-100, room temperature 1 h; competition with 2 nM IR700-P1, PPARγ:RXRα 12 nM:4 nM, competitor 0-2000 nM; recombinant protein; protein details: His (pDEST17),His tag cleaved by TEV; label: IR700", "note": "For at least one entry, the source does not settle the construct or the ends of the probe. At least one verdict was read from the data and is not stated in words by the source.", "data": [{"sequence": "GCCAAACTAGGTCAAAGGTCAAAGTCGAGCCAACCA (double strand) [IR700-labeled P1 probe]", "values": [{"measurement": "binding result", "result": "binds"}]}]}
